Experimental data as given in publication PMC2848857, “The Crystal Structure of PPIL1 Bound to Cyclosporine A Suggests a Binding Mode for a Linear Epitope of the SKIP Protein” (PLoS ONE, 2010).
These are yes or no findings as the source states them, for the method shown. Some results given as binding are weak or reduced against the parent protein; the word gives no strength. Sequences can lack the tags named with a protein.

Molecular target: T1, GST-SKIP^43–79 (human) (UniProt Q13573)
T1 sequence: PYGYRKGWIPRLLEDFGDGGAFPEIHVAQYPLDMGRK
Assay: pull-down; GST or GST-SKIP43-79 on glutathione-sepharose beads; 50 µg purified PPIL1 with 20 µl beads, 2 h at 4°C; washed with TET-150 (150 mM NaCl, 0.1% Triton X-100) or TET-1000 (1 M NaCl); SDS-PAGE, Coomassie; both purified

B1: PPIL1 protein (purified, GST tag cleaved) (enzyme, UniProt Q9Y3C6 1-166)
chain: MAAIPPDSWQPPNVYLETSMGIIVLELYWKHAPKTCKNFAELARRGYYNGTKFHRIIKDFMIQGGDPTGTGRGGASIYGKQFEDELHPDLKFTGAGILAMANAGPDTNGSQFFVTLAPTQWLDGKHTIFGRVCQGIGMVNRVGMVETNSQDRPVDDVKIIKAYPSG
- binding: binds
